Source: ChEMBL document CHEMBL3988442, “University of Dundee, Small-Polar-MMV Screening Library” (2021).

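Whole-parasite assay of Trypanosoma brucei over 72 hours; the read-out is not stated. Tested at 30 µM. Higher reads as stronger inhibition (inferred: compounds with an IC50 in retests scored well above the rest). Values scatter widely below zero; nearly all retest evidence comes from the higher of the two concentrations used. Of about 64,000 compounds tested this way, about 940 (1.5%) reached 50% or more in at least one test.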

Values are the deposited “Percent Effect”, in %.
The record does not define 0% and 100%; most values in the screen are far below 50% and negative numbers occur (in some assays of this library far below -100).
The compounds are a random part of those screened.

Cc1ccc(N2CCCN(C(=O)c3n[nH]c4c3CCC4)CC2)nn1 gave 7.37%. COCC(=O)N1CCCCC1c1nccc(C)n1 (centres undefined) gave 0.5721%. With CCCC(=O)N1CCOC2(COCCN(CC(=O)NC)C2)C1.O=C(O)C(F)(F)F (centres undefined) the screen gave -11.11%. For Cc1cc(NCc2nnc3n2CCC3)n2nc(C)c(C)c2n1 the result was 3.272%. For c1cnc2c(c1)nc1n2[C@@H](CNC2CCOCC2)COC1 the result was 5.433%.

For [H][C@@]12CCN(Cc3nccs3)C[C@@]1([H])O[C@H](C)C2 the result was -43.17%. COc1ccc(-n2cnnc2SCC(C)(C)O)cn1 read 11.15%. Result for CN(C)C(=O)N1CC2(CCOCC2)c2cc(NS(=O)(=O)C3CC3)ccc21 was -65.61%. For O=S(=O)(c1ccc2c(c1)CCC2)N1CCCC(Cn2cncn2)C1 (centres undefined) the result was 6.146%. Result for Cc1cc(C(F)(F)F)nc(N2CCN(Cc3nccn3C)CC2)n1 was -24.07%.

For O=C(O)C(F)(F)F.[H][C@]12CCC[C@@]1(COCc1csc(C)n1)CN(Cc1nccs1)C2 the result was -2.631%. Result for CC1c2ncc(Cn3cncn3)n2CCN1C(=O)c1cscn1 (centres undefined) was -9.782%. With COc1cc(NCc2ccc(Cl)cc2)c(-c2nn[nH]n2)cc1OC the screen gave 7.904%. CC(=O)c1sc2nc3c(c(C(F)(F)F)c2c1N)CN(C(C)=O)CC3 read -7.124%. For CN1C(=O)c2cccc(NC(=O)c3ccc4c(c3)OCCO4)c2C1=O the result was -19.97%.

Result for O=C(O)C(F)(F)F.O=C(O)C(F)(F)F.[H][C@@]12CN(Cc3cccc(F)c3)C[C@]1([H])CN(c1ncc(F)cn1)C2 was -25.25%. For CNC(=O)Nc1cc(-c2ccccc2C)nn1CCO the result was -25.05%. [H][C@@]12C[C@@H](O)CN1C[C@H](Cc1ccccc1)N(Cc1cnc(CC)nc1)C2 gave 4.654%. Cn1nc(CNC(=O)C2CC2)cc1C1CC1 read 31.88%. With COCCOC(=O)N1CCn2nc(CN(C)Cc3nccs3)cc2C1 the screen gave -4.995%.

Cn1cc(CN2CCCC3(CCCCN3S(C)(=O)=O)C2)cn1.O=C(O)C(F)(F)F (centres undefined) read -25.71%. CCCNC(=O)c1nn(CC)cc1NC(=O)c1cn(C)nc1C gave 26.24%. Result for CCN(Cc1nc2c(cnn2C)c(=O)[nH]1)c1cccc(Cl)c1 was -9.63%. Result for Cc1noc(C2CCCN2C(=O)C2CCC2)n1 (centres undefined) was -27.13%. For Cc1nccn1CCCC(=O)N1CCCN(c2cccnn2)CC1 the result was 4.138%.

CNC(=O)C1(CCCc2ccccn2)CN(Cc2scnc2C)C1 gave -44.11%. O=C(CCOc1ccc(F)cc1)N1CCCC1Cn1cccn1 (centres undefined) gave -18.81%. CNC(=O)c1ccc(C2CN(C(=O)c3scnc3C)CCO2)nc1 (centres undefined) gave 7.644%. For CN(C)c1ncc2c(n1)C1(CCN(Cc3ccccc3)C1)COC2.O=C(O)C(F)(F)F (centres undefined) the result was -25.2%. CC(C)Oc1cccc(F)c1C(C(=O)O)N1CCCN(C)CC1 (centres undefined) read -46.21%.

With [H][C@@]12CS(=O)(=O)C[C@]1([H])N(C(=O)c1ccc(COC)o1)CCN2CC=C(C)C the screen gave -31.23%. For Cc1nn(C)c(Cl)c1C1CCCN1Cc1noc(C2CC2)n1 (centres undefined) the result was 17.98%. CCS(=O)(=O)N(C)CC(=O)Nc1ccc(Br)cn1 gave -4.058%. Result for CC(C)c1nc(C2CCCN2Cc2ccon2)no1 (centres undefined) was -2.599%. With O=C(c1cc2ccccc2[nH]c1=O)N1CCC2(CCCNC2)C1 (centres undefined) the screen gave -49.3%.

Cc1cc(C(=O)N[C@H]2Cc3ccccc3[C@@H]2N)c(=O)[nH]c1C read -39.42%. O=C(NCCCN1CCCCC1)c1ccc(-n2ccc3ccccc32)s1 read 80.76%. For COc1cccc2ccn(CC(=O)NC(C)C)c12 the result was -0.5802%. O=C(O)C(F)(F)F.[H][C@@]12CN(Cc3ccsc3)CCC[C@]1(C(=O)O)CN(c1ncccn1)C2 read -65.31%. Cn1cc(N2CC3(COCCN(Cc4nccs4)C3)OCC2=O)cn1.O=C(O)C(F)(F)F (centres undefined) read 27.05%.

For CCn1c(N)nc2cc(C(=O)NCCc3ccccc3F)cnc21 the result was -19.07%. [H][C@@]12CNC[C@]1([H])CN(c1nc(C)nc3ccsc13)C2 read 11.43%. With COCCCNC(=O)CN1CCOC(c2ccccc2)C1 (centres undefined) the screen gave -11.71%. For CC(C)(C)n1cc(C#N)cc1NC(=O)CCS(=O)(=O)C1CCCC1 the result was -38.26%. With O=S(=O)(Nc1cnc(N2CCCC2)nc1)c1ccc(C(F)(F)F)cc1 the screen gave -33.56%.

For O=C(O)C(F)(F)F.[H][C@@]12CCCO[C@]1([H])[C@@H](NC(=O)N(C)C)CN2Cc1ccc2c(c1)OCO2 the result was -7.695%. COCCN1CCCCC12CC(=O)N(c1cccc(C#N)c1)C2.O=C(O)C(F)(F)F (centres undefined) read -67.24%. Result for CCn1nc2c(cc1=O)CN(CCOc1ccccc1C#N)CC2 was 0.7922%. O=C(c1cccnc1)N1CCC(c2nc(O)cc(-c3ccncc3)n2)C1 (centres undefined) read -5.78%. For COc1nn(C)c2c1CCCN(C(=O)c1ccsc1)C2 the result was -35.56%.

Result for CCCc1n[nH]c(C2CN(CCCS(C)(=O)=O)CCO2)n1 (centres undefined) was 12.85%. O=C(c1cccc(O)c1)N1C[C@@H](CN2CCCCC2)[C@@H](CO)C1 read 18.77%. O=C(O)C(F)(F)F.O=C(O)C(F)(F)F.O=C(c1n[nH]c2c1CN(C1CCOC1)CC2)N1CCOCC1 (centres undefined) gave 0.9809%. Result for CN(C)CCN(C)C(=O)c1cn(CC2CCCCC2)nn1 was -34.01%. CCCS(=O)(=O)N1Cc2c(ncn2Cc2ccccc2)C[C@H]1C(=O)OC read -25.27%.

Once more, the final 7:

{"structure": "O=C(c1cccnc1)N1CCC(c2nc(O)cc(-c3ccncc3)n2)C1", "stereo": "centres undefined", "Percent Effect": -5.78}
{"structure": "COc1nn(C)c2c1CCCN(C(=O)c1ccsc1)C2", "Percent Effect": -35.56}
{"structure": "CCCc1n[nH]c(C2CN(CCCS(C)(=O)=O)CCO2)n1", "stereo": "centres undefined", "Percent Effect": 12.85}
{"structure": "O=C(c1cccc(O)c1)N1C[C@@H](CN2CCCCC2)[C@@H](CO)C1", "Percent Effect": 18.77}
{"structure": "O=C(O)C(F)(F)F.O=C(O)C(F)(F)F.O=C(c1n[nH]c2c1CN(C1CCOC1)CC2)N1CCOCC1", "stereo": "centres undefined", "Percent Effect": 0.9809}
{"structure": "CN(C)CCN(C)C(=O)c1cn(CC2CCCCC2)nn1", "Percent Effect": -34.01}
{"structure": "CCCS(=O)(=O)N1Cc2c(ncn2Cc2ccccc2)C[C@H]1C(=O)OC", "Percent Effect": -25.27}